For this assay, the target named is MinE^1-31 (E. coli) (UniProt P0A734). The experiment in a line: co-sedimentation; sedimentation assay of MinE^32-88 mixed with MinE^1-31 in the presence of liposomes (PE:PG:CL = 36:14:50 mol%); supernatant and pellet fractions analysed; both purified.

Results are given in words; binding and its absence hold for the method and conditions named.

As to “MinE^32-88 (from UniProt P0A734 32-88) (domain or fragment)”, the binding result is “no binding”.
